Experimental data as given in the supplement of paper PMC10849652.
This is one part of the list.

Protein sequences, listed by entry. Tags and fused reporters are not part of them. Lines headed by an entry give the natural chain unless they say otherwise; changes in a name come on top.
UniProt O14686, whole entry, looked up: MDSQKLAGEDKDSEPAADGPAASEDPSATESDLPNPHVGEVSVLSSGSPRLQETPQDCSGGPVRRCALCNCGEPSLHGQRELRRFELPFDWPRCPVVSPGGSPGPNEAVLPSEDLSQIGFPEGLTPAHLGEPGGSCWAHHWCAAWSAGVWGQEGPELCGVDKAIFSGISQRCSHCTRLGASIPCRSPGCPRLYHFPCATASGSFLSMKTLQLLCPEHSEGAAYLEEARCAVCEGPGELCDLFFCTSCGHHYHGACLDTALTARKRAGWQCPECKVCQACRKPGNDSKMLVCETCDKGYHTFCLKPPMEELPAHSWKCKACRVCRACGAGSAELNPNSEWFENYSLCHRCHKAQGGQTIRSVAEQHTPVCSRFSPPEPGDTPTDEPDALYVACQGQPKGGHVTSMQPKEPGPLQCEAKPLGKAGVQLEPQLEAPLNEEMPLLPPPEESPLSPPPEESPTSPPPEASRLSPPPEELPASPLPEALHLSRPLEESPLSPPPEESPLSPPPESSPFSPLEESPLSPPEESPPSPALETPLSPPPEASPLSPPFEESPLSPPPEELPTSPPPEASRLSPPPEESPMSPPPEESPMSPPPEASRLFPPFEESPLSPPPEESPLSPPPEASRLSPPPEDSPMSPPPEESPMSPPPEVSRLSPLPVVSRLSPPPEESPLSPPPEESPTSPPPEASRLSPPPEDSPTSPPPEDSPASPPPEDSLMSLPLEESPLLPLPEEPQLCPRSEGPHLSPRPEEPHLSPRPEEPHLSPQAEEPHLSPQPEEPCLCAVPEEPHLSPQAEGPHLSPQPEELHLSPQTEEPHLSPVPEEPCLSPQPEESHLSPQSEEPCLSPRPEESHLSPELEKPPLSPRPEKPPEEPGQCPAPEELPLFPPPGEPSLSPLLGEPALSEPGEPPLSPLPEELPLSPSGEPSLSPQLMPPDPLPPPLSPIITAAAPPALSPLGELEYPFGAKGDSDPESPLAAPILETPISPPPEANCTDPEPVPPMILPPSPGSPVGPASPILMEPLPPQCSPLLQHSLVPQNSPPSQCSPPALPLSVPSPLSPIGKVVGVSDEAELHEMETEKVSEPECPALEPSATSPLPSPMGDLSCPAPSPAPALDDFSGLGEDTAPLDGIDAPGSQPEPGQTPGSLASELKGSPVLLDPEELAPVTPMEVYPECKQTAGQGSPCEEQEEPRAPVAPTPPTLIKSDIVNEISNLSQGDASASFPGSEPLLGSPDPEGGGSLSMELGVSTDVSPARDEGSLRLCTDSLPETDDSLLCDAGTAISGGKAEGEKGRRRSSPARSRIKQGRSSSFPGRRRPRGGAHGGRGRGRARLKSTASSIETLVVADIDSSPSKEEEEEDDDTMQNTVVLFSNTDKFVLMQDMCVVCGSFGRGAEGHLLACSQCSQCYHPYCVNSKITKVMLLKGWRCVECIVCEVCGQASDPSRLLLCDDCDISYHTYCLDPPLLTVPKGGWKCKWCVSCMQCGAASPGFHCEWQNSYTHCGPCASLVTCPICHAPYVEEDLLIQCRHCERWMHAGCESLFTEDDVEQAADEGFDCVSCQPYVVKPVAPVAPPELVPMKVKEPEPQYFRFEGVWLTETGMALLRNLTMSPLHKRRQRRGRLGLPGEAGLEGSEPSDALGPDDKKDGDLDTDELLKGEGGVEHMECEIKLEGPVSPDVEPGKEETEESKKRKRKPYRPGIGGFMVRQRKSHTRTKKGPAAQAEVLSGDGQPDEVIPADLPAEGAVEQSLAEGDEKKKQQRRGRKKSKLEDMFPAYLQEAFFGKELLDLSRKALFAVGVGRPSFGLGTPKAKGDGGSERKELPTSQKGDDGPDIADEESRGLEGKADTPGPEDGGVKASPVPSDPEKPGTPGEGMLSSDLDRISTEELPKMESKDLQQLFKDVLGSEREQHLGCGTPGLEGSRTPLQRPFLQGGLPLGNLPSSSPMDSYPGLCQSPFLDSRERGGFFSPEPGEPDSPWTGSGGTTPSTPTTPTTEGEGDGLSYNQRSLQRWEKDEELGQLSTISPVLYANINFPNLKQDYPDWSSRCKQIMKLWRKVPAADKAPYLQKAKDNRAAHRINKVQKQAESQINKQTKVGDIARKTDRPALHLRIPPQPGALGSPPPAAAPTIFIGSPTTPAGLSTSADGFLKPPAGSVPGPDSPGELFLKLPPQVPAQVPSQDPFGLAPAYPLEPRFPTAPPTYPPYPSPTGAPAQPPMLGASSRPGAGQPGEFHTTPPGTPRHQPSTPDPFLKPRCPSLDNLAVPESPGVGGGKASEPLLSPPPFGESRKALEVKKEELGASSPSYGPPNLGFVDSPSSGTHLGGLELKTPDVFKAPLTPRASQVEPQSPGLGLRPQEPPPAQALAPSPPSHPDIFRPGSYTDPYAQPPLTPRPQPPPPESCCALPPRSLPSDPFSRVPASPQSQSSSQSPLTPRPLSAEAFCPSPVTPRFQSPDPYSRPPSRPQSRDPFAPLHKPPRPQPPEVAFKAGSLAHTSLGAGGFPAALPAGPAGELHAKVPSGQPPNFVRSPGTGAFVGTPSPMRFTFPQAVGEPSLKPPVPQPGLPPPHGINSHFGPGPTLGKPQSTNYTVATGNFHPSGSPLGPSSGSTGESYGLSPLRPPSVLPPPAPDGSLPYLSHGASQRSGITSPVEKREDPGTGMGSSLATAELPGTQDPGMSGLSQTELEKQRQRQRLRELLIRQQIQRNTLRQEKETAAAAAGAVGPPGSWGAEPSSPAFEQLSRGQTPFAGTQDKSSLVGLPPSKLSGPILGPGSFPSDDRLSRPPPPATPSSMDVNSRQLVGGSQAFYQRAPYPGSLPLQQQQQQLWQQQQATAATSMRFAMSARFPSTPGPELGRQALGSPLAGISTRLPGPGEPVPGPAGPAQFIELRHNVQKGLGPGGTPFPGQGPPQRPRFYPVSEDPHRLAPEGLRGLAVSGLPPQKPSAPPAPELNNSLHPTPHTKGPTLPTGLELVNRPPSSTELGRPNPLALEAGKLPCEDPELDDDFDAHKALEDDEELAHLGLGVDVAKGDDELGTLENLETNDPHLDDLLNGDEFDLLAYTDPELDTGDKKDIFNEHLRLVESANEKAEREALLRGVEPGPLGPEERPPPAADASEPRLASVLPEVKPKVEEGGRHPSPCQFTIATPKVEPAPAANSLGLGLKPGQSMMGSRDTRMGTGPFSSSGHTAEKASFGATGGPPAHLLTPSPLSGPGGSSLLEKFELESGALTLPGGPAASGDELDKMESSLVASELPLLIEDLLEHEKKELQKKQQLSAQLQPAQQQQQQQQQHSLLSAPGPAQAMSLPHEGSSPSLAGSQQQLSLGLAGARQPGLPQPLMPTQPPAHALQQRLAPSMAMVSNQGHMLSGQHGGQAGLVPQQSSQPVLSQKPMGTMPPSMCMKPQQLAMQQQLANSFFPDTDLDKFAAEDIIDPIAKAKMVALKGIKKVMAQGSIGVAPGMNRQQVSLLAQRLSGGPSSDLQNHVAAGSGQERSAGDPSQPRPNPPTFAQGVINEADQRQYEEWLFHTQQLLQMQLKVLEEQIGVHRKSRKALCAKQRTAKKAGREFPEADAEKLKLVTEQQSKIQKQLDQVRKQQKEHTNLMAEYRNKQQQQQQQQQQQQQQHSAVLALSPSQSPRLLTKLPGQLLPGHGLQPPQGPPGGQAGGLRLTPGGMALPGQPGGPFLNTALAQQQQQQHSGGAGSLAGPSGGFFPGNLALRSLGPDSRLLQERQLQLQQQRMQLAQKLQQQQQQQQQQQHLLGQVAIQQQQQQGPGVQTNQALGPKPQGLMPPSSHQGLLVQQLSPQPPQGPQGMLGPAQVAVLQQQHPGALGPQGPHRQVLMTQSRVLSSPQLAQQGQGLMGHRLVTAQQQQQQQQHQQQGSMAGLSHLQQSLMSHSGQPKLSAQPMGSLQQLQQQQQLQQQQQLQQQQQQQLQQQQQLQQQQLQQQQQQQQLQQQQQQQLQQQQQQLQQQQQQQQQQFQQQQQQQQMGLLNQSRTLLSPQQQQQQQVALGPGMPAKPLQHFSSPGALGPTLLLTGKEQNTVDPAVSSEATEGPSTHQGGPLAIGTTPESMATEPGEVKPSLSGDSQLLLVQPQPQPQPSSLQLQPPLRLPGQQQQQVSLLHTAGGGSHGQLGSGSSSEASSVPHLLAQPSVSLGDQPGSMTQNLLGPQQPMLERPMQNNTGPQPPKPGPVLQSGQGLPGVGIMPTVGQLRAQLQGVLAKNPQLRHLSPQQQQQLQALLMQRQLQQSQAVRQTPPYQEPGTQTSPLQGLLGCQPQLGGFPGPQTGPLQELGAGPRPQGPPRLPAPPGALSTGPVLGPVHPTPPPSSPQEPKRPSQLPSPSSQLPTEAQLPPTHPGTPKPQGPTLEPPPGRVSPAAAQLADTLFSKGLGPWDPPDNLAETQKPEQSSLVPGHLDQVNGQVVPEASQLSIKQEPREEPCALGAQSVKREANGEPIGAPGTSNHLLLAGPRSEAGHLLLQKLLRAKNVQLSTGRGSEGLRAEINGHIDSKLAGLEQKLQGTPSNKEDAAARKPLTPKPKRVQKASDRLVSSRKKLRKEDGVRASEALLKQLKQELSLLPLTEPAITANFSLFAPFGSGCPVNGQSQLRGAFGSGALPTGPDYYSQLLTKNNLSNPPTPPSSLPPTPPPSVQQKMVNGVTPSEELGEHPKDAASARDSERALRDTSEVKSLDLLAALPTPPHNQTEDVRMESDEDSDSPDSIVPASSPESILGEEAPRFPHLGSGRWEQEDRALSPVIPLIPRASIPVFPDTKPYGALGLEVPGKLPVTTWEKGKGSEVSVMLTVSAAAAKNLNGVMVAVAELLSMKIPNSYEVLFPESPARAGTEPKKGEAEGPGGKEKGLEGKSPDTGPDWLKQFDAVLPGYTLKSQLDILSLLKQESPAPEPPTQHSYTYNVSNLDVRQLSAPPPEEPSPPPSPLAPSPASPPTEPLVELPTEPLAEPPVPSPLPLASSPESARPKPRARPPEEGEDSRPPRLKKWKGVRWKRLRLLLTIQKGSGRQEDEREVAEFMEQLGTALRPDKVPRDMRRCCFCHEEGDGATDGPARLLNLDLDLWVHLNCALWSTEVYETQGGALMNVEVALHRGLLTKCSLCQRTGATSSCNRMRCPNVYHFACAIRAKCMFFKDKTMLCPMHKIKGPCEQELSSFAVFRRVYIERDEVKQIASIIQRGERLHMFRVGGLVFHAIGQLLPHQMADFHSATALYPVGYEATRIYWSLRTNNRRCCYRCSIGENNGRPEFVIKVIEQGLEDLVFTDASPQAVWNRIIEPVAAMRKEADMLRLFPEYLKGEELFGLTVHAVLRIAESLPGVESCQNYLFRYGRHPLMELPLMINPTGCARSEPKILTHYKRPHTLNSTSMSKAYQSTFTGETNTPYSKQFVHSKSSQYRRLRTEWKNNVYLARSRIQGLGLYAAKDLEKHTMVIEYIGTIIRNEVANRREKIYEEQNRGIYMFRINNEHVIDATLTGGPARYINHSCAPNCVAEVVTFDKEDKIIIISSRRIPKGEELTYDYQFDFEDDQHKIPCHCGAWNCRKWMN
UniProt Q9UHA4, whole entry, looked up: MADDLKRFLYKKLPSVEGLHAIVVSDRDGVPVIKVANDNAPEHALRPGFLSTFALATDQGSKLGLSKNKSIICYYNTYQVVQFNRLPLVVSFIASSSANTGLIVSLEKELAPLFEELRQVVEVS
UniProt Q9BQ90: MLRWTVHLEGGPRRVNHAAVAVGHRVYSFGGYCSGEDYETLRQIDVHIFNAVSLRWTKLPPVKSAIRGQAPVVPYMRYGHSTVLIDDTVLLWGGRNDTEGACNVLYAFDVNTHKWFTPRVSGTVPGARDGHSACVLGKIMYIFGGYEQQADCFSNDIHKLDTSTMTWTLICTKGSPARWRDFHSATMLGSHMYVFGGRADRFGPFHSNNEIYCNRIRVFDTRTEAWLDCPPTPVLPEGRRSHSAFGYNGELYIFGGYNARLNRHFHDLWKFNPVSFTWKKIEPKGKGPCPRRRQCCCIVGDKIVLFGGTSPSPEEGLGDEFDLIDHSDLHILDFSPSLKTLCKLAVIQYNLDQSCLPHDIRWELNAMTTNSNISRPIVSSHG
UniProt O43813, whole entry, looked up: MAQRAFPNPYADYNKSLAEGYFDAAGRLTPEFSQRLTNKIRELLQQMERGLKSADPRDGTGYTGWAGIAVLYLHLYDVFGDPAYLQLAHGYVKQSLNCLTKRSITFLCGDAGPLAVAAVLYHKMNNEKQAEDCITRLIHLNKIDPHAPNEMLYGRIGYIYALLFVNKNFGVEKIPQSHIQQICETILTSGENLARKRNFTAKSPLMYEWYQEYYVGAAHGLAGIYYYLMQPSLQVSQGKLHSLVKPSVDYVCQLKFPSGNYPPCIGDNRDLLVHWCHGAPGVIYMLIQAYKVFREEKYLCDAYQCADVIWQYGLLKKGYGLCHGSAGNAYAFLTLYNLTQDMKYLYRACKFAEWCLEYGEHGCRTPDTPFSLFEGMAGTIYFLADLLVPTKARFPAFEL

Assays:
Assay in all cases: log2 fold change, soluble protein after heating vs DMSO (PISA); higher = thermal stabilisation; K562 lysate, 10 uM; active = over 0.2 and 3.5 SD of the protein, either way, in both replicates (recomputed)
ibrutinib = compound: C=CC(=O)N1CCC[C@@H](n2nc(-c3ccc(Oc4ccccc4)cc3)c3c(N)ncnc32)C1 [ibrutinib]
Procedure, shortened: (§1)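 K562 pellets were dounce-homogenised in PBS pH 7.4 containing 1 mM MgCl2, and the crude extract, at 1 mg/mL protein, was exposed to 10 μM compound for 30 min. Aliquots were heated for 3 min across 48°C-58°C, pooled, brought to 0.5% NP-40 at 4°C and spun at 21,000xg for 90 min, with the supernatant taken as soluble protein. TMTpro 16plex LC-MS/MS with equalised channel sums quantified that protein. Values are log-two fold changes in thermal stability relative to solvent controls, taken from duplicates.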

[1] = compound: CC(=O)c1cnc2ccc(-c3cc(Cl)c(O)c(Cl)c3)nc2c1N[C@H]1CC[C@H](CN(C)C)CC1
Procedure, shortened: as §1

ralimetinib = compound: CC(C)(C)Cn1c(N)nc2ccc(-c3[nH]c(C(C)(C)C)nc3-c3ccc(F)cc3)nc21 [ralimetinib]
Procedure, shortened: as §1

[2] = compound: CC(C)(O)CC(=O)NCCn1ccc2ncnc(Nc3ccc(Oc4cccc(C(F)(F)F)c4)c(Cl)c3)c21
Procedure, shortened: as §1

[3] = compound: CC(C)C1=C2N=C(C=C(N2N=C1)NCC3=CC=CC=C3)NCCCCCCN
Procedure, shortened: as §1

[4] = compound: CC1=C(C(CC(=O)N1)C2=CC=C(C=C2)C(F)(F)F)C(=O)NC3=C(C=C4C(=C3)C=NN4)F
Procedure, shortened: as §1

[5] = compound: CC1=C(C2=C(C=C1)C(=O)C3=CC=CC=C3N2CCCN)C
Procedure, shortened: as §1

[6] = compound: CC1=C(C=C(C=C1)NC(=O)C2=CC(=CC=C2)C(C)(C)C#N)NC3=CC4=C(C=C3)N=CN(C4=O)C
Procedure, shortened: as §1

[7] = compound: CC1=C(C=C(C=C1)NC(=O)C2=CC(=CC=C2)N(C)C)NC(=O)C3=CC=C(C=C3)O
Procedure, shortened: as §1

[8] = compound: CC1=CC=C(C=C1)SC2=C3C=C(SC3=CN=C2)C(=O)N
Procedure, shortened: as §1

vemurafenib = compound: CCCS(=O)(=O)Nc1ccc(F)c(C(=O)c2c[nH]c3ncc(-c4ccc(Cl)cc4)cc23)c1F [vemurafenib]
Procedure, shortened: as §1

[9] = compound: CCCS(=O)(=O)Nc1ccc(F)c(C(=O)c2c[nH]c3ncc(Cl)cc23)c1F
Procedure, shortened: as §1

barasertib = compound: CCN(CCCOc1ccc2c(Nc3cc(CC(=O)Nc4cccc(F)c4)[nH]n3)ncnc2c1)CCOP(=O)(O)O [barasertib]
Procedure, shortened: as §1

[10] = compound: CC[C@@H]1C(=O)N(C)c2cnc(Nc3ccc(C(=O)NC4CCN(C)CC4)cc3OC)nc2N1C1CCCC1
Procedure, shortened: as §1

volasertib = compound: CC[C@@H]1C(=O)N(C)c2cnc(Nc3ccc(C(=O)N[C@H]4CC[C@H](N5CCN(CC6CC6)CC5)CC4)cc3OC)nc2N1C(C)C [volasertib]
Procedure, shortened: as §1

[11] = compound: CCn1c(C(=O)N(C2CC2)C2CC2)cc2c3c(ncn3C)c(Nc3cc(C)n(C)n3)nc21
Procedure, shortened: as §1

[12] = compound: CCn1cc(-c2ccnc3[nH]c(-c4cccc(CN(C)C)c4)cc23)c(-c2ccc(NC(=O)N(C)C)cc2)n1
Procedure, shortened: as §1

[13] = compound: CN1CCC(CNc2ccc3ncc(-c4cccc(OC(F)(F)F)c4)n3n2)CC1
Procedure, shortened: as §1

saracatinib = compound: CN1CCN(CCOc2cc(OC3CCOCC3)c3c(Nc4c(Cl)ccc5c4OCO5)ncnc3c2)CC1 [saracatinib]
Procedure, shortened: as §1

sotrastaurin = compound: CN1CCN(c2nc(C3=C(c4c[nH]c5ccccc45)C(=O)NC3=O)c3ccccc3n2)CC1 [sotrastaurin]
Procedure, shortened: as §1

Target | log2 fold change (ibrutinib) | log2 fold change [1] | log2 fold change (ralimetinib) | log2 fold change [2] | log2 fold change [3] | log2 fold change [4] | log2 fold change [5] | log2 fold change [6] | log2 fold change [7] | log2 fold change [8] | log2 fold change (vemurafenib) | log2 fold change [9] | log2 fold change (barasertib) | log2 fold change [10] | log2 fold change (volasertib) | log2 fold change [11] | log2 fold change [12] | log2 fold change [13] | log2 fold change (saracatinib) | log2 fold change (sotrastaurin)
KIF21A isoform 5 (UniProt Q7Z4S6) | inactive: 0.027 | inactive: -0.002 | inactive: 0.015 | inactive: 0 | inactive: 0.002 | inactive: 0.034 | inactive: -0.031 | inactive: 0.025 | inactive: 0.014 | inactive: 0.024 | inactive: 0.03 | inactive: 0.041 | inactive: 0.005 | inactive: -0.038 | inactive: -0.026 | inactive: -0.025 | inactive: 0.165 | inactive: -0.101 | inactive: 0.037 | inactive: 0.017
KMT2D isoform 3 (UniProt O14686) | inactive: 0.007 | inactive: 0.001 | inactive: 0.021 | inactive: -0.022 | inactive: 0.009 | inactive: -0.004 | inactive: -0.013 | inactive: 0.005 | inactive: 0.014 | inactive: 0.003 | inactive: 0.012 | inactive: 0.028 | inactive: 0.024 | inactive: -0.014 | inactive: -0.021 | inactive: -0.008 | inactive: 0.006 | inactive: -0.017 | inactive: 0.055 | inactive: 0.015
KLHL12 isoform 2 (UniProt Q53G59) | inactive: 0.156 | inactive: 0.067 | inactive: 0.123 | inactive: -0.032 | inactive: 0.073 | inactive: 0.026 | inactive: -0.041 | inactive: -0.066 | inactive: 0 | inactive: 0.007 | inactive: 0.038 | inactive: 0.061 | active: -0.413 |  | inactive: -0.045 | inactive: 0.118 |  |  | inactive: 0.064 | inactive: -0.045
LAMA2 (UniProt P24043) | inactive: -0.023 | inactive: 0.016 | inactive: -0.03 | inactive: -0.133 | inactive: 0.008 | inactive: 0.041 |  |  | inactive: 0.029 | inactive: -0.14 | inactive: 0.089 | inactive: -0.068 | inactive: 0.039 | inactive: 0.124 | inactive: 0.021 | inactive: -0.102 | inactive: -0.284 | inactive: 0.148 |  | 
KDM6A (UniProt O15550) | inactive: -0.007 | inactive: 0.012 | inactive: 0.003 | inactive: -0.028 | inactive: 0.025 | inactive: -0.007 | inactive: -0.065 | inactive: 0.009 | inactive: -0.004 | inactive: 0.022 | inactive: -0.045 | inactive: 0.006 | inactive: 0.017 | inactive: 0.035 | inactive: -0.036 | inactive: -0.017 | inactive: 0.089 | inactive: 0.067 | inactive: 0.029 | inactive: -0.01
LAMTOR3 (UniProt Q9UHA4) | inactive: 0.03 | inactive: 0.007 | inactive: 0.021 | inactive: -0.041 | inactive: -0.008 | inactive: -0.014 | inactive: -0.008 | inactive: 0.069 | inactive: -0.007 | inactive: -0.01 | inactive: 0.056 | inactive: 0.007 | inactive: 0.046 | inactive: 0.049 | inactive: 0.019 | inactive: -0.015 | inactive: -0.19 | inactive: 0 | inactive: 0.015 | inactive: 0.006
LAMTOR4 (UniProt Q0VGL1) | inactive: 0.057 | inactive: -0.012 | inactive: -0.002 | inactive: -0.007 | inactive: -0.002 | inactive: -0.034 | inactive: 0.019 | inactive: 0.03 | inactive: -0.019 | inactive: 0.002 | inactive: -0.028 | inactive: 0.015 | inactive: 0.09 | inactive: 0.044 | inactive: 0.029 | inactive: -0.028 | inactive: -0.08 | inactive: 0.053 | inactive: 0.031 | inactive: -0.012
KPNA3 (UniProt O00505) | inactive: -0.003 | inactive: -0.015 | inactive: 0.034 | inactive: -0.062 | inactive: -0.068 | inactive: -0.013 | inactive: -0.052 | inactive: 0.039 | inactive: -0.013 | inactive: 0.012 | inactive: -0.011 | inactive: -0.002 | inactive: 0.043 | inactive: -0.005 | inactive: -0.023 | inactive: -0.003 | inactive: -0.087 | inactive: 0.056 | inactive: -0.003 | inactive: -0.046
KIF11 (UniProt P52732) | inactive: 0.005 | inactive: -0.003 | inactive: 0.029 | inactive: 0.01 | inactive: 0.007 | inactive: 0.005 | inactive: 0.01 | inactive: -0.019 | inactive: 0.014 | inactive: 0.015 | inactive: -0.027 | inactive: 0.003 | inactive: 0.023 | inactive: -0.011 | inactive: -0.024 | inactive: 0.025 | inactive: -0.055 | inactive: 0.018 | inactive: 0.023 | inactive: 0.026
KEL (UniProt P23276) | inactive: 0.052 | inactive: 0.026 | inactive: -0.044 | inactive: -0.05 | inactive: 0.019 | inactive: -0.044 | inactive: -0.041 | inactive: -0.001 | inactive: -0.036 | inactive: -0.013 | inactive: 0.01 | inactive: 0.003 | inactive: 0.084 | inactive: 0.055 | inactive: 0.025 | inactive: 0.038 | inactive: -0.035 | inactive: -0.077 | inactive: 0.022 | inactive: 0.016
KLF1 (UniProt Q13351) | inactive: 0.029 | inactive: -0.13 | inactive: 0.067 | inactive: 0.058 | inactive: -0.051 | inactive: 0.096 |  |  | inactive: 0.065 | inactive: 0.01 |  | inactive: 0.062 | inactive: -0.035 |  | inactive: -0.011 | inactive: -0.01 |  |  |  | 
LARS (UniProt Q9P2J5) | inactive: -0.021 | inactive: -0.003 | inactive: 0.023 | inactive: 0.048 | inactive: 0.021 | inactive: -0.001 | inactive: -0.017 | inactive: -0.041 | inactive: 0.029 | inactive: 0.022 | inactive: -0.005 | inactive: 0.006 | inactive: 0.006 | inactive: -0.069 | inactive: -0.063 | inactive: 0.045 | inactive: 0.008 | inactive: -0.058 | inactive: -0.023 | inactive: -0.002
KLHDC3 (UniProt Q9BQ90) | inactive: 0.113 | inactive: 0.021 | inactive: 0.06 | inactive: -0.006 | inactive: 0.012 | inactive: -0.106 | inactive: 0.028 | inactive: 0.021 | inactive: 0.008 | inactive: -0.063 | inactive: -0.085 | inactive: 0.046 | inactive: 0.076 | inactive: -0.03 | inactive: 0.045 | inactive: 0.065 | inactive: 0.042 | inactive: 0.043 | inactive: 0.026 | inactive: -0.01
KIF3B (UniProt O15066) | inactive: 0.068 | inactive: 0.009 | inactive: 0.285 | inactive: -0.04 | inactive: -0.027 | inactive: 0.015 |  | inactive: -0.003 | inactive: 0.019 | inactive: 0.065 | inactive: -0.118 | inactive: 0.028 | inactive: -0.086 | inactive: -0.069 | inactive: 0 | inactive: -0.166 | inactive: -0.225 | inactive: 0.067 |  | inactive: -0.01
LANCL1 (UniProt O43813) | inactive: 0.044 | inactive: 0.028 | inactive: -0.004 | inactive: -0.031 | inactive: -0.019 | inactive: -0.018 | inactive: 0.014 | inactive: 0.055 | inactive: 0.009 | inactive: -0.001 | inactive: -0.032 | inactive: 0.015 | inactive: -0.01 | inactive: -0.145 | inactive: -0.065 | inactive: -0.031 | inactive: 0.01 | inactive: 0.039 | inactive: 0.008 | inactive: -0.022
LACTB (UniProt P83111) | inactive: 0.007 | inactive: 0.014 | inactive: -0.011 | inactive: 0.025 | inactive: -0.009 | inactive: -0.026 | inactive: -0.008 | inactive: 0.002 | inactive: 0.09 | inactive: 0.022 | inactive: 0.028 | inactive: 0.035 | inactive: 0.052 | inactive: -0.028 | inactive: -0.044 | inactive: -0.057 | inactive: 0.085 | inactive: 0.014 | inactive: -0.013 | inactive: 0.047
LANCL2 (UniProt Q9NS86) | inactive: -0.015 | inactive: -0.001 | inactive: 0.012 | inactive: -0.016 | inactive: 0 | inactive: -0.028 | inactive: -0.049 | inactive: 0.02 | inactive: 0 | inactive: -0.024 | inactive: 0.04 | inactive: 0.034 | inactive: -0.025 | inactive: -0.045 | inactive: -0.025 | inactive: -0.014 | inactive: 0.001 | inactive: -0.007 | inactive: -0.003 | inactive: -0.016

Pulled one by one from above (two):
Target | log2 fold change (ibrutinib) | log2 fold change [1] | log2 fold change (ralimetinib) | log2 fold change [2] | log2 fold change [3] | log2 fold change [4] | log2 fold change [5] | log2 fold change [6] | log2 fold change [7] | log2 fold change [8] | log2 fold change (vemurafenib) | log2 fold change [9] | log2 fold change (barasertib) | log2 fold change [10] | log2 fold change (volasertib) | log2 fold change [11] | log2 fold change [12] | log2 fold change [13] | log2 fold change (saracatinib) | log2 fold change (sotrastaurin)
KMT2D isoform 3 (UniProt O14686) | inactive: 0.007 | inactive: 0.001 | inactive: 0.021 | inactive: -0.022 | inactive: 0.009 | inactive: -0.004 | inactive: -0.013 | inactive: 0.005 | inactive: 0.014 | inactive: 0.003 | inactive: 0.012 | inactive: 0.028 | inactive: 0.024 | inactive: -0.014 | inactive: -0.021 | inactive: -0.008 | inactive: 0.006 | inactive: -0.017 | inactive: 0.055 | inactive: 0.015
KIF21A isoform 5 (UniProt Q7Z4S6) | inactive: 0.027 | inactive: -0.002 | inactive: 0.015 | inactive: 0 | inactive: 0.002 | inactive: 0.034 | inactive: -0.031 | inactive: 0.025 | inactive: 0.014 | inactive: 0.024 | inactive: 0.03 | inactive: 0.041 | inactive: 0.005 | inactive: -0.038 | inactive: -0.026 | inactive: -0.025 | inactive: 0.165 | inactive: -0.101 | inactive: 0.037 | inactive: 0.017
